In patent publication US20020151680A1:
No constants are given. Whether binding was seen depends on the method and setting. Some binding calls cover weakened binding; strength is not graded here.

Sequences of proteins named here, by UniProt entry; tags and fusion partners are left off. Residues count along the entry.
UniProt P17948, residues 27-331: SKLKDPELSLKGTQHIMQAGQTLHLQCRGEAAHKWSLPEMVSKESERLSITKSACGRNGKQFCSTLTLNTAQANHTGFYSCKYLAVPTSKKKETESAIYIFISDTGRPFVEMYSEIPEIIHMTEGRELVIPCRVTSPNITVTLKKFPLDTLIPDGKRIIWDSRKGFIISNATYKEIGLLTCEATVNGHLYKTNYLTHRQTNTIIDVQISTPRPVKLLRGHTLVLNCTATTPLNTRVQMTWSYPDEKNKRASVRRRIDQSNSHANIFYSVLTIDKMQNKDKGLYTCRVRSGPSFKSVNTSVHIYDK
UniProt P35968, residues 24-326: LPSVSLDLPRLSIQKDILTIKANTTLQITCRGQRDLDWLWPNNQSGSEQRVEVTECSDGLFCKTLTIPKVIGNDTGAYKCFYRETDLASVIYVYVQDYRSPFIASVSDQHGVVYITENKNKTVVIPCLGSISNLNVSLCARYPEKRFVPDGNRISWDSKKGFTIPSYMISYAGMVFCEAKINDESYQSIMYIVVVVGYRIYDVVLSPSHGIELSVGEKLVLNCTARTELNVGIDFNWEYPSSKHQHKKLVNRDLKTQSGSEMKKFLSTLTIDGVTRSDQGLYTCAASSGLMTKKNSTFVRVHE

What follows are binders tested against VEGFR-1-Fc (UniProt P17948) (assay: 35S IP, receptor-Fc).

Binder | binding
41-1 (ligand) AHYNTEILKFMDVYQRSYCHPREVCIDVGKEYPDEIEYIFKPSCVPLMRCGGCCNDEGLECVPTEESNITMQIMRIKPHQGQHIGEMSFLQHNKCECRPKKD | binds
83-1 (ligand) AHYNTEILKFMDVYQRSYCHPIETLVDIFQEYPDEIEYIFKPPCVSVYRCGGCCNDEGLECVPTEESNITMQIMRIKPHQGQHIGEMSFLQHNKCECRPKKD | binds
83-3 (ligand) AHYNTEILKFMDVYQRSYCHPIETLVDIFQEYPDEIEYIFKPPCVSVYRCGGCCNSEGLQCVPTEESNITMQIMRIKPHQGQHIGEMSFLQHNKCECRPKKD | binds
83-5 (ligand) AHYNTEILKFMDVYQRSYCHPIETLVDIFQEYPDEIEYIFKPPCVSVYRCGGCCNDEGLECVPTEESNITMQIMRIKPHQGQHIGEMSFANHTSCRCMSKLD | binds
83-9 (ligand) AHYNTEILKFMDVYQRSYCHPIETLVDIFQEYPDEIEYIFKPPCVSVYRCGGCCNDEGLECVPTEESNITMQIMRITVPLSQGPKPVTISFLQHNKCECRPKKD | binds
83-13 (ligand) AHYNTEILKFMDVYQRSYCHPIETLVDIFQEYPDEIEYIFKPPCVSVYRCGGCCNDEGLECVPTEESNITMQIMRITVPLSQGPKPVTISFANHTSCRCMSKLD | binds
62-1 (ligand) GQNHHEVVKFMDVYQRSYCHPREVCIDVGKEFGVATNTFFKPPCVSVYRCGGCCNDEGLECVPTEESNITMQIMRIKPHQGQHIGEMSFLQHNKCECRPKKD | binds
82-5 (ligand) AHYNTEILKFMDVYQRSYCHPIETLVDIFQEFGVATNTFFKPPCVSVYRCGGCCNDEGLECVPTEESNITMQIMRIKPHQGQHIGEMSFANHTSCRCMSKLD | binds
84-1 (ligand) AHYNTEILKFMDVYQRSYCHPIETLVDIFQEFGVATNTFFKPSCVPLMRCGGCCNDEGLECVPTEESNITMQIMRIKPHQGQHIGEMSFLQHNKCECRPKKD | binds
84-5 (ligand) AHYNTEILKFMDVYQRSYCHPIETLVDIFQEFGVATNTFFKPSCVPLMRCGGCCNDEGLECVPTEESNITMQIMRIKPHQGQHIGEMSFANHTSCRCMSKLD | binds
11-9 (ligand) GQNHHEVVKFMDVYQRSYCHPIETLVDIFQEYPDEIEYIFKPSCVPLMRCGGCCNDEGLECVPTEESNITMQIMRITVPLSQGPKPVTISFLQHNKCECRPKKD | binds
11-13 (ligand) GQNHHEVVKFMDVYQRSYCHPIETLVDIFQEYPDEIEYIFKPSCVPLMRCGGCCNDEGLECVPTEESNITMQIMRITVPLSQGPKPVTISFANHTSCRCMSKLD | binds
81-9 (ligand) AHYNTEILKFMDVYQRSYCHPIETLVDIFQEYPDEIEYIFKPSCVPLMRCGGCCNDEGLECVPTEESNITMQIMRITVPLSQGPKPVTISFLQHNKCECRPKKD | binds
81-13 (ligand) AHYNTEILKFMDVYQRSYCHPIETLVDIFQEYPDEIEYIFKPSCVPLMRCGGCCNDEGLECVPTEESNITMQIMRITVPLSQGPKPVTISFANHTSCRCMSKLD | binds
13-9 (ligand) GQNHHEVVKFMDVYQRSYCHPIETLVDIFQEYPDEIEYIFKPPCVSVYRCGGCCNDEGLECVPTEESNITMQIMRITVPLSQGPKPVTISFLQHNKCECRPKKD | binds
13-11 (ligand) GQNHHEVVKFMDVYQRSYCHPIETLVDIFQEYPDEIEYIFKPPCVSVYRCGGCCNSEGLQCVPTEESNITMQIMRITVPLSQGPKPVTISFLQHNKCECRPKKD | binds
13-13 (ligand) GQNHHEVVKFMDVYQRSYCHPIETLVDIFQEYPDEIEYIFKPPCVSVYRCGGCCNDEGLECVPTEESNITMQIMRITVPLSQGPKPVTISFANHTSCRCMSKLD | binds
13-15 (ligand) GQNHHEVVKFMDVYQRSYCHPIETLVDIFQEYPDEIEYIFKPPCVSVYRCGGCCNSEGLQCVPTEESNITMQIMRITVPLSQGPKPVTISFANHTSCRCMSKLD | binds
14-5 (ligand) GQNHHEVVKFMDVYQRSYCHPIETLVDIFQEFGVATNTFFKPSCVPLMRCGGCCNDEGLECVPTEESNITMQIMRIKPHQGQHIGEMSFANHTSCRCMSKLD | binds

Each binder was assayed against VEGFR-2-Fc (UniProt P35968) (assay: 35S IP, receptor-Fc).

Binder | binding
23-12 (ligand) AHYNTEILKSIDNEWRKTQCMPREVCIDVGKEYPDEIEYIFKPPCVSVYRCGGCCNSEGLQCMNTSTSYLSKTLFEITVPLSQGPKPVTISFLQHNKCECRPKKD | binds
33-1 (ligand) GQNHHEVVKSIDNEWRKTQCMPIETLVDIFQEYPDEIEYIFKPPCVSVYRCGGCCNDEGLECVPTEESNITMQIMRIKPHQGQHIGEMSFLQHNKCECRPKKD | binds
33-3 (ligand) GQNHHEVVKSIDNEWRKTQCMPIETLVDIFQEYPDEIEYIFKPPCVSVYRCGGCCNSEGLQCVPTEESNITMQIMRIKPHQGQHIGEMSFLQHNKCECRPKKD | binds
33-9 (ligand) GQNHHEVVKSIDNEWRKTQCMPIETLVDIFQEYPDEIEYIFKPPCVSVYRCGGCCNDEGLECVPTEESNITMQIMRITVPLSQGPKPVTISFLQHNKCECRPKKD | binds
83-1 (ligand) AHYNTEILKFMDVYQRSYCHPIETLVDIFQEYPDEIEYIFKPPCVSVYRCGGCCNDEGLECVPTEESNITMQIMRIKPHQGQHIGEMSFLQHNKCECRPKKD | binds
83-3 (ligand) AHYNTEILKFMDVYQRSYCHPIETLVDIFQEYPDEIEYIFKPPCVSVYRCGGCCNSEGLQCVPTEESNITMQIMRIKPHQGQHIGEMSFLQHNKCECRPKKD | binds
83-5 (ligand) AHYNTEILKFMDVYQRSYCHPIETLVDIFQEYPDEIEYIFKPPCVSVYRCGGCCNDEGLECVPTEESNITMQIMRIKPHQGQHIGEMSFANHTSCRCMSKLD | binds
53-1 (ligand) AHYNTEILKSIDNEWRKTQCMPIETLVDIFQEYPDEIEYIFKPPCVSVYRCGGCCNDEGLECVPTEESNITMQIMRIKPHQGQHIGEMSFLQHNKCECRPKKD | binds
53-7 (ligand) AHYNTEILKSIDNEWRKTQCMPIETLVDIFQEYPDEIEYIFKPPCVSVYRCGGCCNSEGLQCVPTEESNITMQIMRIKPHQGQHIGEMSFANHTSCRCMSKLD | binds
62-8 (ligand) GQNHHEVVKFMDVYQRSYCHPREVCIDVGKEFGVATNTFFKPPCVSVYRCGGCCNSEGLQCMNTSTSYLSKTLFEIKPHQGQHIGEMSFANHTSCRCMSKLD | binds
62-10 (ligand) GQNHHEVVKFMDVYQRSYCHPREVCIDVGKEFGVATNTFFKPPCVSVYRCGGCCNDEGLECMNTSTSYLSKTLFEITVPLSQGPKPVTISFLQHNKCECRPKKD | binds
62-13 (ligand) GQNHHEVVKFMDVYQRSYCHPREVCIDVGKEFGVATNTFFKPPCVSVYRCGGCCNDEGLECVPTEESNITMQIMRITVPLSQGPKPVTISFANHTSCRCMSKLD | binds
63-3 (ligand) GQNHHEVVKFMDVYQRSYCHPREVCIDVGKEYPDEIEYIFKPPCVSVYRCGGCCNSEGLQCVPTEESNITMQIMRIKPHQGQHIGEMSFLQHNKCECRPKKD | binds
63-6 (ligand) GQNHHEVVKFMDVYQRSYCHPREVCIDVGKEYPDEIEYIFKPPCVSVYRCGGCCNDEGLECMNTSTSYLSKTLFEIKPHQGQHIGEMSFANHTSCRCMSKLD | binds
73-7 (ligand) GQNHHEVVKSIDNEWRKTQCMPREVCIDVGKEYPDEIEYIFKPPCVSVYRCGGCCNSEGLQCVPTEESNITMQIMRIKPHQGQHIGEMSFANHTSCRCMSKLD | binds
73-15 (ligand) GQNHHEVVKSIDNEWRKTQCMPREVCIDVGKEYPDEIEYIFKPPCVSVYRCGGCCNSEGLQCVPTEESNITMQIMRITVPLSQGPKPVTISFANHTSCRCMSKLD | binds
74-8 (ligand) GQNHHEVVKSIDNEWRKTQCMPREVCIDVGKEFGVATNTFFKPSCVPLMRCGGCCNSEGLQCMNTSTSYLSKTLFEIKPHQGQHIGEMSFANHTSCRCMSKLD | binds
74-10 (ligand) GQNHHEVVKSIDNEWRKTQCMPREVCIDVGKEFGVATNTFFKPSCVPLMRCGGCCNDEGLECMNTSTSYLSKTLFEITVPLSQGPKPVTISFLQHNKCECRPKKD | binds
74-12 (ligand) GQNHHEVVKSIDNEWRKTQCMPREVCIDVGKEFGVATNTFFKPSCVPLMRCGGCCNSEGLQCMNTSTSYLSKTLFEITVPLSQGPKPVTISFLQHNKCECRPKKD | binds
14-7 (ligand) GQNHHEVVKFMDVYQRSYCHPIETLVDIFQEFGVATNTFFKPSCVPLMRCGGCCNSEGLQCVPTEESNITMQIMRIKPHQGQHIGEMSFANHTSCRCMSKLD | binds
